Experimental data: PubChem BioAssay AID2685 (National Center for Advancing Translational Sciences (NCATS), 2010)
This is one part of the list. Further columns of the screen follow, without active or inactive calls. The list favours compounds with an active or inconclusive main result. The note in brackets gives the kind of curve behind each potency; many fits are weak.

Assay: qHTS Assay for Lipid Storage Modulators in Drosophila S3 Cells;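 on cell number change: cells counted by Cell Tracker Red CMTPX staining in the red channel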
Conditions: BODIPY lipid droplet fluorescence, 18-24 h; for cell number change: measured here: cell count max response, cells fed with added oleic acid
Method in brief: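 Laser-scanning cytometry quantifies lipid droplet accumulation (500–530 nm total intensity; droplet/cell object ratio) in oleic acid-fed (400 uM added) Drosophila S3 cells treated with a concentration series. 20 uM Triacsin C defined 100% inhibition.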

[1] = measured here: lipid fluorescence (Fed channel) AC50, cells fed with added oleic acid
[2] = measured here: cell number channel AC50, cells fed with added oleic acid

Structure (SMILES)	cell number change [%]	AC50 [1]	AC50 [2]
Cc1cnc(CN(C)C(=O)c2ccc3oc(Cc4ccc(Cl)cc4)nc3c2)[nH]1	9.79	16.4 µM [rising, partial curve]	–
Cc1ccc(N2C(=O)CSC2c2c(F)cccc2Cl)cc1 (stereo not given)	-6.52	0.461 µM [rising, single point]	–
COc1ccc(-c2cc(=O)oc3c(C)c(OC(=O)c4cccs4)ccc23)cc1	-78.4	1.16 µM [falling, full curve]	1.3 µM [falling, full curve]
O=S(=O)(Nc1cccc(-c2cn3cccnc3n2)c1)c1ccccc1	–	0.0058 µM [rising, full curve]	–
O=C(Nc1ccncc1)c1ccc(F)cc1	17.9	–	–
CN(C)C(=O)C1(c2ccccc2)CCN(S(=O)(=O)c2ccccc2)CC1	-12.4	–	–
O=C(CSc1nnc(-c2cccs2)n1-c1ccccc1)N1CCOCC1	1.75	0.731 µM [falling, single point]	–
CC(=O)N1C(=O)c2cccc3cccc(c23)C(=O)N1C(C)=O	-125	0.731 µM [falling, full curve]	23.1 µM [falling, partial curve]
Cc1cccc(OCc2n[nH]c(=S)o2)c1C	30.3	–	32.6 µM [rising, single point]
NS(=O)(=O)c1ccc(CCNC(=O)Cn2c(=O)c3cccn3c3cccnc32)cc1	18.3	0.58 µM [falling, single point]	–
COCCNC(=O)CN(c1ccc(C)cc1)S(=O)(=O)c1ccc(SC)cc1	-0.701	1.3 µM [rising, full curve, poor fit]	–
Cc1ccc(NC(=O)CCn2ccc([N+](=O)[O-])n2)nc1	-1.8	16.4 µM [rising, partial curve]	–
C(=N\Nc1ncnc2ccccc12)/c1ccccc1	83.2	–	10.3 µM [rising, partial curve, poor fit]
CCOC(=O)c1sc2nc(C)nc(SCC(=O)N(C)C3CCS(=O)(=O)C3)c2c1C (stereo not given)	-6.4	0.82 µM [rising, single point]	–
Cc1ccc(CNC(=O)c2ccc(N(C)S(=O)(=O)c3ccccc3)cc2)cc1	-17.1	0.206 µM [falling, single point]	0.517 µM [falling, partial curve, poor fit]
Cc1noc2ncnc(Sc3ccc(Cl)cc3)c12	-52.2	2.59 µM [falling, full curve]	4.11 µM [falling, full curve]
COc1ccc(C(=O)Cn2nnc(-c3ccc(N4CCOCC4)cc3)n2)cc1OC	7.73	0.58 µM [rising, single point]	0.92 µM [rising, full curve]
CCOC(=O)c1ccc(N=c2sc(C(=O)OC)cc(=O)n2Cc2ccco2)cc1	-8.38	23.1 µM [falling, single point]	–
O=C(COC(=O)[C@@H]1CCCN1S(=O)(=O)c1ccc(Cl)cc1)NCC(F)(F)F	-66.7	0.92 µM [falling, full curve, poor fit]	29.1 µM [falling, single point]
CC12CC3CC(C)(C1)CC(C(=O)NNC(=O)c1ccncc1)(C3)C2	1.18	1 µM [rising, full curve, poor fit]	–

Structure (SMILES)	cell number change [%]	AC50 [1]	AC50 [2]
COc1ccccc1NC(=O)Nc1ccccc1Br	-8.86	20.6 µM [rising, single point]	–
O=C(N/C=C/c1ccco1)OCc1ccccc1	-21.4	–	–
CN(CC(=O)Nc1ccccc1C(=O)NC1CC1)Cc1ccccc1F	50	29.1 µM [falling, single point]	3.26 µM [falling, single point]
O=C(O)C1=C[C@@H](c2ccc(C(F)(F)F)cc2)C[C@@H](OCc2ccc(CO)cc2)O1	10.1	11.6 µM [rising, single point]	–
CN(C)Cc1n[nH]c(=O)c2ccccc12	-56.4	–	0.0731 µM [falling, full curve, poor fit]
Cc1ccc(Oc2ccc(C=O)cn2)cc1	-44.7	18.4 µM [falling, single point]	9.2 µM [falling, partial curve, poor fit]
Cc1sccc1/C=N/NC(=O)c1ccco1	21.6	0.58 µM [falling, single point]	–
O=C(CS(=O)(=O)c1cn(Cc2ccc(Cl)cc2)c2ccccc12)N1CCCC1	-16.5	5.17 µM [rising, full curve]	–
Cn1c(CCN2CCCCC2)nc2cc(NC(=O)COc3ccc(Cl)cc3)ccc21	–	4.11 µM [rising, single point]	–
COc1cccc(NC(=O)c2oc3ccccc3c2NC(=O)C2CC2)c1	–	6.51 µM [rising, single point]	6.51 µM [rising, single point]
Cn1c(=O)c(=O)n(C)c2cc(S(=O)(=O)NCCOc3ccccc3Cl)ccc21	-25.2	–	–
COc1ccc(Br)cc1-c1noc(-c2ccccc2)n1	–	2.31 µM [rising, partial curve]	2.06 µM [rising, partial curve]
Cc1cc(-n2c(C)cc(C(=O)CSc3ncnc4ccccc34)c2C)no1	-24.6	0.164 µM [rising, partial curve, poor fit]	–
CCN(CCNC(=O)C1CCN(Cc2nc(-c3cccc(Cl)c3)oc2C)CC1)c1ccccc1	-27.7	–	0.0082 µM [falling, full curve, poor fit]
COc1ccc(NCC(=O)N/N=C/c2c(C)nn(Cc3ccccc3)c2Cl)cc1	11.3	5.8 µM [rising, full curve]	–
COC(=O)CN(C)C(=O)c1ccc2nc(Cc3cccc(Cl)c3)oc2c1	20.8	8.2 µM [rising, partial curve]	–
Cc1ccc(NC(=O)c2sc(Cl)nc2C)c(C)c1	83.3	–	29.1 µM [rising, single point]
CC(C)(C)c1ccc(C(=O)N/C(=C\c2cccs2)C(=O)N2CCOCC2)cc1	7.83	–	–
CCC(CC)C(=O)c1c[nH]c(C(=O)NCc2ccccc2)c1	16.7	3.66 µM [rising, single point]	–
O=C(CSc1ncccc1-c1nc2ccccc2[nH]1)N1CCCCC1	-13.8	1.16 µM [rising, full curve, poor fit]	–

Structure (SMILES)	cell number change [%]	AC50 [1]	AC50 [2]
CCSS(=O)(=O)c1cccc2cccnc12	-32.5	18.4 µM [falling, single point]	–
O=C(O)COc1ccc(NC(=O)c2ccco2)cc1	-10.5	6.51 µM [falling, single point]	5.8 µM [falling, single point]
CC1=C(C(=O)Nc2ccccc2)C(c2ccc(N(C)C)cc2)NC(=O)N1 (stereo not given)	-36.9	4.61 µM [falling, full curve]	0.206 µM [falling, full curve]
O=C(CNC(=O)c1cccc(Cl)c1)N/N=C/C=C/c1ccccc1	52.5	6.51 µM [rising, single point]	0.164 µM [rising, full curve, poor fit]
COc1ccc2nc(/C=N/NC(=O)CCCCCNC(=O)OC(C)(C)C)ccc2c1	17.8	–	0.58 µM [rising, full curve, poor fit]
CC1(C)Cc2nc3sc(C(=O)NCCCO)c(N)c3cc2CS1	-6.37	–	–
Nc1ccccc1C(O)(Cc1ccccc1)c1ccccc1 (stereo not given)	-31.6	29.1 µM [falling, single point]	29.1 µM [falling, single point]
CCCN(CC1CCCO1)C(=O)c1cc(COc2cccc(OC)c2)on1 (stereo not given)	-5.6	–	–
CCc1ccc(NC(=O)CN2C(=O)CC(C)S(=O)(=O)c3ccccc32)cc1 (stereo not given)	–	29.1 µM [falling, single point]	–
COc1cc(/C=C/c2c([N+](=O)[O-])c(=O)n(C)c(=O)n2C)cc(OC)c1OC	54.8	2.06 µM [rising, partial curve]	9.2 µM [rising, partial curve]
CCOC(=O)CCCSc1nc2sc3c(c2c(=O)[nH]1)CCC3	13	4.11 µM [falling, single point]	–
COc1ccc(-c2nc(-c3ccc(Br)o3)no2)cc1OC	-32.9	29.1 µM [falling, single point]	–
Cc1cccc(NC(=O)c2ccc(F)c(S(=O)(=O)N3CCC4(CC3)OCCO4)c2)c1	-25.4	29.1 µM [falling, single point]	–
CCOC(=O)N1CCC(NC(=O)CSCc2nc(-c3ccccc3Cl)oc2C)CC1	-12.1	5.8 µM [falling, single point]	4.11 µM [falling, single point]
O=C(CSCc1ccco1)c1cccs1	7.33	–	–
COC(=O)N(C)CCCC1(C)C(=O)N(C)c2ccc(O)cc21 (stereo not given)	11	–	0.82 µM [falling, single point]
CCN1CCN(C(=O)NS(=O)(=O)c2ccc(C)cc2)CC1	-13.9	0.58 µM [falling, single point]	–
Cc1ccc(C(=O)N2CC(C(=O)O)C2)cc1	-0.615	6.51 µM [falling, single point]	–
O=C(c1ccc(CS(=O)Cc2ccc(Cl)cc2)o1)N1CCN(c2ccccc2F)CC1 (stereo not given)	–	0.326 µM [falling, single point]	–

Some values from the list:
Under cell number change [%], CCSS(=O)(=O)c1cccc2cccnc12 shows -32.5
Under cell number change [%], CCCN(CC1CCCO1)C(=O)c1cc(COc2cccc(OC)c2)on1 (stereo not given) shows -5.6
Under AC50 [2], Nc1ccccc1C(O)(Cc1ccccc1)c1ccccc1 (stereo not given) shows 29.1 µM [falling, single point]
